# ± gives the standard deviation of the averaged measurements. Only a part is listed here, and it is no random draw.
# Amino acid sequences for entries named in this document (tags omitted). A change or cut given only in a name is not applied to a line headed by its entry.
# UniProt P28370, whole entry: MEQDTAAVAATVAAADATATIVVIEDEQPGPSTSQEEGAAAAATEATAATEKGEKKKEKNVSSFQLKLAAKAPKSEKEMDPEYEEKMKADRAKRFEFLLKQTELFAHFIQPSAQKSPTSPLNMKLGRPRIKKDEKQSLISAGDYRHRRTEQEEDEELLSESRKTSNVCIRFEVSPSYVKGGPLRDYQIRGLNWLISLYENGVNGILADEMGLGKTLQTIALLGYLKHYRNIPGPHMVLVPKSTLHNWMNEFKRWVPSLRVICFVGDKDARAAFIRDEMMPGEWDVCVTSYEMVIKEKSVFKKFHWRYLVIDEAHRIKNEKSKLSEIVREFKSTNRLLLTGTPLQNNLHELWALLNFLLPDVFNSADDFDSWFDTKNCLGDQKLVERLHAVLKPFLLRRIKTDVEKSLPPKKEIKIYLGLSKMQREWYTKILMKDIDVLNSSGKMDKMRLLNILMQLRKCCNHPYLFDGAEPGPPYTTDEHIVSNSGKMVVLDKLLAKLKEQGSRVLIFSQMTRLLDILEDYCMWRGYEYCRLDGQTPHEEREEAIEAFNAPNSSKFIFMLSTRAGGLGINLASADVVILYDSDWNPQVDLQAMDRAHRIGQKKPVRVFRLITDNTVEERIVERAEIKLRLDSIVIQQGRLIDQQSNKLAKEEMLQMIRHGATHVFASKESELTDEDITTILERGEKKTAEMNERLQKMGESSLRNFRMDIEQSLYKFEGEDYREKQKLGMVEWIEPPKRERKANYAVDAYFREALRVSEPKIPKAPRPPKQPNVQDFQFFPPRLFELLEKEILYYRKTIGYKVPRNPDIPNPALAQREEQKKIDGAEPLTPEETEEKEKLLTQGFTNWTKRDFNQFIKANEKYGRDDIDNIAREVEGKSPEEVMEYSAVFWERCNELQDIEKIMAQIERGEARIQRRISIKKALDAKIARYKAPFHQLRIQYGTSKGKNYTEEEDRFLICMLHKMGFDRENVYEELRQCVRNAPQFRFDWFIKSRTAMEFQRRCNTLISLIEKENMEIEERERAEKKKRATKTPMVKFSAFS
# UniProt Q70IA6: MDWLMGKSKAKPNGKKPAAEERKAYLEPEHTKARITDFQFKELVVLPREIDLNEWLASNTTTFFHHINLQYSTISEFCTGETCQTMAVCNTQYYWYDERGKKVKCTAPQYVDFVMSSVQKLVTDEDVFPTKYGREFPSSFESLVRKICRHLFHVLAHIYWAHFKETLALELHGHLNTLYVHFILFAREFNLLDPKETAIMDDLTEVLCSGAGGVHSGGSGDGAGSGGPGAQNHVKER
# UniProt O43464: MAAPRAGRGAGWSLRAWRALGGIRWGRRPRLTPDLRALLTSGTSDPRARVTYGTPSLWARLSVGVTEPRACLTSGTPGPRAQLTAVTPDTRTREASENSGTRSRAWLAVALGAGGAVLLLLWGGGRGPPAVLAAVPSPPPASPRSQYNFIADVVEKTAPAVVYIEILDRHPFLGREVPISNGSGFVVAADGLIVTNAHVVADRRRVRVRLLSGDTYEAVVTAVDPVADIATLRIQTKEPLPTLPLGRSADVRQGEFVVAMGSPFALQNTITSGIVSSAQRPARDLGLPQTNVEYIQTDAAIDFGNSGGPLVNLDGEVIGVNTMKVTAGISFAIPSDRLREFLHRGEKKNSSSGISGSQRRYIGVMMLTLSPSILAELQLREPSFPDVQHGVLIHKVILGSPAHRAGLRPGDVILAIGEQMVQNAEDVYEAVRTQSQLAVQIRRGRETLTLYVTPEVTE
# UniProt Q5T8P6: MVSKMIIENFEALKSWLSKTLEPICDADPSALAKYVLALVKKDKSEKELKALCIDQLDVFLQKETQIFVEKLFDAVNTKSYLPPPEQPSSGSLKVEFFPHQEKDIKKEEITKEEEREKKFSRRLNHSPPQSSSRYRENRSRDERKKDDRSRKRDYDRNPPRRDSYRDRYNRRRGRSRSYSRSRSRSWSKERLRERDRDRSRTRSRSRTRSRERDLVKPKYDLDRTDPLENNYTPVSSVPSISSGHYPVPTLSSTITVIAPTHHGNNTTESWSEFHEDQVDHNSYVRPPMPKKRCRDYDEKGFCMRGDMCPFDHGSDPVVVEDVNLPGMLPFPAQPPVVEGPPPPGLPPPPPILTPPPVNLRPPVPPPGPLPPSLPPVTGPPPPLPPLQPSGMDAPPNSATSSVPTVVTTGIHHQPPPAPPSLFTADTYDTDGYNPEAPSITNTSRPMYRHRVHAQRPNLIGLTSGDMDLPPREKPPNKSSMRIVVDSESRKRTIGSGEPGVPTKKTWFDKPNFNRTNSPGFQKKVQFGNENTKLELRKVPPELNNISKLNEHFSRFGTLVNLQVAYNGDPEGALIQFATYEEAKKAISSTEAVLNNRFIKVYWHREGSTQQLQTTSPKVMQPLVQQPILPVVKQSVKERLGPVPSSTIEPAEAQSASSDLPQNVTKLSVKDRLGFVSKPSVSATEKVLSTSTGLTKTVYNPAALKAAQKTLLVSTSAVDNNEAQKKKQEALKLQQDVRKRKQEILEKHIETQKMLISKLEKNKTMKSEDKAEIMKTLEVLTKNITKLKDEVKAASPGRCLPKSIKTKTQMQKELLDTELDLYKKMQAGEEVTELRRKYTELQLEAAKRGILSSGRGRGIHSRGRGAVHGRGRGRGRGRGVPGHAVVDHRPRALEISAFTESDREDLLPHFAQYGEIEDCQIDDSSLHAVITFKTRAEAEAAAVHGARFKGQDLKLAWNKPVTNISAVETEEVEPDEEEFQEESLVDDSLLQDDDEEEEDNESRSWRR
# UniProt Q8WYA6: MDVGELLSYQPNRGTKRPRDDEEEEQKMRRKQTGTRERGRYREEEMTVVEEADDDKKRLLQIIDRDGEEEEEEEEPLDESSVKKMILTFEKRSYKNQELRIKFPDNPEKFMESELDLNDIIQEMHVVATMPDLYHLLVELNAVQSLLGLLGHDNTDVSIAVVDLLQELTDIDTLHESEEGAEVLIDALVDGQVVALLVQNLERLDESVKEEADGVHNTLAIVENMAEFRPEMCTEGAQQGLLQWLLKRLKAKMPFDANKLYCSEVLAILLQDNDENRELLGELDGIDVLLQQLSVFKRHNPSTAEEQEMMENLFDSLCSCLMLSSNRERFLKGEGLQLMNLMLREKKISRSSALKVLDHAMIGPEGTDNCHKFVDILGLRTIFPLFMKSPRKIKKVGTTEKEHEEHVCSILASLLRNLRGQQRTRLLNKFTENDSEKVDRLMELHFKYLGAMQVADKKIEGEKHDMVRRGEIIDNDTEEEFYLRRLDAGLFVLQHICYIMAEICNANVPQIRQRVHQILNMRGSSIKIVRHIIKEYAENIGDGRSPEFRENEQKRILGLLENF
# UniProt Q9UHQ1: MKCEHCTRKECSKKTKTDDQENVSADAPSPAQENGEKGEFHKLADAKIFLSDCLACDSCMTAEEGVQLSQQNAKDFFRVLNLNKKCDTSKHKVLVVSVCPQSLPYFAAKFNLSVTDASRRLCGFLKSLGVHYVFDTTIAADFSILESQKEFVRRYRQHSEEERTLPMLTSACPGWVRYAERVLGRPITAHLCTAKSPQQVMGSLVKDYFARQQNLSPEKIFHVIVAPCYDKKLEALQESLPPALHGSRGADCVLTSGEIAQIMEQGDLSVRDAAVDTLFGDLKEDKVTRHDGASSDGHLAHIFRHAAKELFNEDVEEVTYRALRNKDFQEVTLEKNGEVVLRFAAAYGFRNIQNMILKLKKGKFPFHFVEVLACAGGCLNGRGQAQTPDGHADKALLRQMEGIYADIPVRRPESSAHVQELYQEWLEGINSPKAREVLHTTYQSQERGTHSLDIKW
# UniProt Q8TBC5: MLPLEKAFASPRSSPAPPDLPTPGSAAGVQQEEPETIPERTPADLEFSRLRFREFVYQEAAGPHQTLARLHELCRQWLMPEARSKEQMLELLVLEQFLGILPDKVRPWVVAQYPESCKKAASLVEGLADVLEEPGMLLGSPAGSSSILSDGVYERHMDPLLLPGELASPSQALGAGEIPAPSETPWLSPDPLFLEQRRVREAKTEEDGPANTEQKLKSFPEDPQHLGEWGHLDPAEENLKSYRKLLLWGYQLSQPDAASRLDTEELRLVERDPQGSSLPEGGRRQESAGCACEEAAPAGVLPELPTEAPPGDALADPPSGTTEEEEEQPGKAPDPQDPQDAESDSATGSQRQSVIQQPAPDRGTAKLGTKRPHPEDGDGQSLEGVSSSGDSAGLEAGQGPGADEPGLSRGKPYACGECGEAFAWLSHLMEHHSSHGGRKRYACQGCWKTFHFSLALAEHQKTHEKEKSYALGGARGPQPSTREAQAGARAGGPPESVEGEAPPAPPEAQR
# UniProt O95218: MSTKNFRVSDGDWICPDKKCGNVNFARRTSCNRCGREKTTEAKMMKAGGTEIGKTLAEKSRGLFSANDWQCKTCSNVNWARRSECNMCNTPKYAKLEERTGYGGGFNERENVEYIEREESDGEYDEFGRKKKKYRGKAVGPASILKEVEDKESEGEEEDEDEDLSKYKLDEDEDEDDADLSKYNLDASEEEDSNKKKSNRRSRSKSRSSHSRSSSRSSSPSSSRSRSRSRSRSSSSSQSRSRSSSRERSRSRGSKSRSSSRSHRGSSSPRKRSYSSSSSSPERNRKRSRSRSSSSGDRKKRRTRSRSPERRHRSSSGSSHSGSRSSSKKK
# UniProt O15484: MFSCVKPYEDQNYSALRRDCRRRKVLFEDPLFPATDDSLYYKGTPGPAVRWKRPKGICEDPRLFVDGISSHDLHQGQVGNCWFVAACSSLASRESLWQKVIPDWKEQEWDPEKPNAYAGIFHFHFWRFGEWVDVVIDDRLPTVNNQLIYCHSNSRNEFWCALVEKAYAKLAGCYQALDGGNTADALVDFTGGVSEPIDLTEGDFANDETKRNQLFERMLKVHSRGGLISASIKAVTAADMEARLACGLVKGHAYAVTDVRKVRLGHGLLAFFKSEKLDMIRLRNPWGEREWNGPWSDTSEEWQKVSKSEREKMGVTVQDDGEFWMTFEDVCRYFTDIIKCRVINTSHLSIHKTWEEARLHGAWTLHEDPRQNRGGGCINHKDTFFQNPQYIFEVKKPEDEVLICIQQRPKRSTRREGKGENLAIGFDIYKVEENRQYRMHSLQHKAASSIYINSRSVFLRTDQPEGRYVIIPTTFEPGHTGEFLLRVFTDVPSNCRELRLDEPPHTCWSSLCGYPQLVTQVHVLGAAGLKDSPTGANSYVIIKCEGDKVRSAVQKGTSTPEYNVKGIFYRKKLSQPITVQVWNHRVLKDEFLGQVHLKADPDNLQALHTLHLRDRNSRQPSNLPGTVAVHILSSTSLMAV
# UniProt Q9UL33, whole entry: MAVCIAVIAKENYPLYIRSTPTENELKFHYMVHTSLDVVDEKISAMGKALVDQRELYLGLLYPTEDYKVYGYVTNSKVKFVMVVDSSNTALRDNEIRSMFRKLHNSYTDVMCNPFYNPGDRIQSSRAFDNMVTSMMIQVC
# UniProt Q9NYM9: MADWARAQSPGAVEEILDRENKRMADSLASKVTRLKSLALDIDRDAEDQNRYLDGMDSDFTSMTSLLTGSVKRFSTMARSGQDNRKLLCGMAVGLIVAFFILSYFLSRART
# UniProt Q15651: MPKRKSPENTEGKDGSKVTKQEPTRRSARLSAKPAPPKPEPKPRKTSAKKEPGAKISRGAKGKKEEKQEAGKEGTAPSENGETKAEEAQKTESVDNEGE
# UniProt P39656: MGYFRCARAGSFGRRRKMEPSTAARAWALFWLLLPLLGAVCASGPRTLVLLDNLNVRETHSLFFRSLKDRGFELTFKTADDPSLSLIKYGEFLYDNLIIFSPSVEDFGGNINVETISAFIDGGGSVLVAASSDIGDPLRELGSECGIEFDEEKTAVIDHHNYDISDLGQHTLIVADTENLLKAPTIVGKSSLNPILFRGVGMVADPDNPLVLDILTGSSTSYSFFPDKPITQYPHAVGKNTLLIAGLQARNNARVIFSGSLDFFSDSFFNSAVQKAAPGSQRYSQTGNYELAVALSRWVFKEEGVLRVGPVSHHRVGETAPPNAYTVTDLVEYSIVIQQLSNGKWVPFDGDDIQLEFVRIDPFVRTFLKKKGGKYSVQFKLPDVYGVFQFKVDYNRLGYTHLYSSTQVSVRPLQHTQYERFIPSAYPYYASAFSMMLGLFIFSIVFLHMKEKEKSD
# Compound: Nc1ncnc2c1ncn2[C@@H]1O[C@H](COP(=O)(O)OP(=O)(O)OP(=O)(O)O)[C@@H](O)[C@H]1O [adenosine triphosphate]
# Assay: NP40-soluble protein abundance relative to vehicle (solubility fold change) (ratio); higher = more soluble protein in presence of ATP
# Conditions: concentration: 6mM
# How it was run: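 Values are fold changes against the detergent-processed vehicle, based on vsn-normalised intensities. Jurkat crude lysate was treated at eight concentrations from 0.1 to 10 mM (10 min at room temperature, then 3 min at 37 °C), solubilised with 0.8% NP40 and benzonase, ultracentrifuged and analysed by TMT-labelled LC-MS/MS over three independent experiments.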
row,Target,NP40-soluble protein abundance
1,A0A0A0MRP6|B7ZLQ5 and related entries (UniProt P28370),1.19 ± 0.042
2,A0A087WVS8|Q70IA6 and related entries (UniProt Q70IA6),0.972 ± 0.068
3,A0A0C4DG44|O43464 and related entries (UniProt O43464),0.989 ± 0.035
4,A0A087X0H9|Q5T8P6 and related entries (UniProt Q5T8P6),1.24 ± 0.02
5,A0A087X0M0|Q7Z5L2 and related entries (UniProt Q7Z5L2),0.93 ± 0.052
6,A0A087WUB9|Q8WYA6 (UniProt Q8WYA6),1.09 ± 0.021
7,A0A088AWN8|Q9UHQ1 and related entries (UniProt Q9UHQ1),0.985 ± 0.082
8,A0A0C4DG78|M0R3C6 and related entries (UniProt Q8TBC5),0.928 ± 0.017
9,A0A0C4DGV5|O95218 and related entries (UniProt O95218),0.76 ± 0.052
10,A0A087X0C8|O15484 and related entries (UniProt O15484),1.01 ± 0.025
11,A0A087WUS0|E7ETK0 and related entries (UniProt P62847),0.746 ± 0.13
12,A0A0B4J294|H3BP13 and related entries (UniProt Q9UL33),0.979 ± 0.073
13,A0A0C4DH16|B8ZZS0 and related entries (UniProt Q9NYM9),0.963 ± 0.078
14,A0A087WZE9|Q15651 (UniProt Q15651),1.5 ± 0.4
15,A0A0C4DGS1|P39656 (UniProt P39656),0.92 ± 0.12
16,A0A0C4DH01|Q9NVU0 and related entries (UniProt Q9NVU0),1.02 ± 0.17

# Reformatted: results already given.
row	Target	NP40-soluble protein abundance
7	A0A088AWN8|Q9UHQ1 and related entries (UniProt Q9UHQ1)	0.985 ± 0.082
8	A0A0C4DG78|M0R3C6 and related entries (UniProt Q8TBC5)	0.928 ± 0.017
